According to publication PMC10086757:
No constants are given. Whether binding was seen depends on the method and setting. For part of these data: In cells and extracts the contact can be indirect. Some results given as binding are weak or reduced against the parent protein; the word gives no strength. For part of these data: Sequences can lack the tags named with a protein. Each block holds one substance with its values, some of them ahead of it.

By UniProt entry, the sequences of proteins in these tests, tags left out.
UniProt O60260: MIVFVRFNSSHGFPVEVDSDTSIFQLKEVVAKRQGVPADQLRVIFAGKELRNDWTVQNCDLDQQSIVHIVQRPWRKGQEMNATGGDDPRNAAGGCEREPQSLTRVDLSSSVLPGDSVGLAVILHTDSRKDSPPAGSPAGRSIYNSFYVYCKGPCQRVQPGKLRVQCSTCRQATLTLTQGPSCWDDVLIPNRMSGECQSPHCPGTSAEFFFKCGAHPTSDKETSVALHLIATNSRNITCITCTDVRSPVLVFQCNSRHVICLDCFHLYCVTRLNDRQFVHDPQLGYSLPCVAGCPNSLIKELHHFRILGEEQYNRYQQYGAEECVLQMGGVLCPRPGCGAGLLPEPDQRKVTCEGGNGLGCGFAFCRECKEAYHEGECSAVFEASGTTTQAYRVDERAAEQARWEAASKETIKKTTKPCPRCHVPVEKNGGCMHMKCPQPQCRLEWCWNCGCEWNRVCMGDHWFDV

Columns and labels:
Flag-Vdr (293T) = target: T1, Flag-Vdr (293T) (UniProt P11473); assay: co-IP; tagged proteins overexpressed in 293T (HEK293T) cells; RIPA buffer, antibody overnight, Protein A/G magnetic beads, immunoblot
T1 sequence: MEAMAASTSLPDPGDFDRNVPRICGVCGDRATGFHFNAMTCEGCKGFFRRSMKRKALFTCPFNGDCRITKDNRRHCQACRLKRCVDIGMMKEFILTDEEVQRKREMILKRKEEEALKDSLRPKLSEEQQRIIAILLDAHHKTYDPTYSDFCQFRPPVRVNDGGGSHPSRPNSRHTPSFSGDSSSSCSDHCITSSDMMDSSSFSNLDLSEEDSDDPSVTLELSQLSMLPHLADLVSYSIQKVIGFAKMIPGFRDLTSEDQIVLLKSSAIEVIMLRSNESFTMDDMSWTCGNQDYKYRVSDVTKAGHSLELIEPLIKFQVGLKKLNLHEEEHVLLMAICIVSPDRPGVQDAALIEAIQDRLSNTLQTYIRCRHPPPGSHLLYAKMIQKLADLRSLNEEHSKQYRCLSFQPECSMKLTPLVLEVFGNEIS

GST-VDR = target: T2, GST-VDR (UniProt P11473); assay: pull-down; purified GST-VDR incubated with purified His-Parkin for two h; pulled down by glutathione beads, immunoblot; both purified
T2 sequence: T1 sequence

[1] = target: T3, Vitamin D receptor (VDR), endogenous in HCT116 (human (endogenous in HCT116)) (UniProt P11473); assay: co-IP; cytoplasm and nucleus of HCT116 isolated, then immunoprecipitated and immunoblotted
T3 sequence: T1 sequence

binding (Flag-Vdr (293T)): binds
Substance: HA-Parkin (293T) (from UniProt O60260 1-465)

binding (GST-VDR): binds
Substance: His-Parkin (from UniProt O60260 1-465)

binding [1]: binds
Substance: Parkin, endogenous in HCT116 (from UniProt O60260 1-465)
